Data published in patent US20180319873A1 (TAIPEI MEDICAL UNIVERSITY, published 2018).
No constants are given. Whether binding was seen depends on the method and setting. Some results given as binding are weak or reduced against the parent protein; the word gives no strength.

Sequences of proteins named here, by UniProt entry; tags and fusion partners are left off.
UniProt Q97QS2: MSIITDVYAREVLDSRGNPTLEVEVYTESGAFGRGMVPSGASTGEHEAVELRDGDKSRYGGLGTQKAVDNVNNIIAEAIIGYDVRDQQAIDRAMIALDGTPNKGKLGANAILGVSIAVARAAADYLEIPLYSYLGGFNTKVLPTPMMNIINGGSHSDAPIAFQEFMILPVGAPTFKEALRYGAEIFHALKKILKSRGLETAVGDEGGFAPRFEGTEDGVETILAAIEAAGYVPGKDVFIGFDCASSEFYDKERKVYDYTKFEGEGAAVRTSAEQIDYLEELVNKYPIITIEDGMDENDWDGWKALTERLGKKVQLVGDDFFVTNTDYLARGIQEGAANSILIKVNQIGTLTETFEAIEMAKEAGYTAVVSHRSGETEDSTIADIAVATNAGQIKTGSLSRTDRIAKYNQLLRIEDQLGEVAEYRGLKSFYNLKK

Target: SpENO1 (purified recombinant ENO1 of S. pneumoniae) (S. pneumoniae) (UniProt Q97QS2)
Assay: Western blot on purified ENO1 proteins

B1: CaS1 scFv (anti-CaENO1 scFv monoclonal antibody) (scFv)
scFv: ALTQPSSVSANLGGTVKITCSGGSGSYGWYQQKSPGSAPVTVIYSNNQRPSNIPSRFSGSPSGSTGTLTITGVQADDEAVYFCGSRDSSYVGVFGAGTTLTVLGQSSRSSTVTLDESGGGLQTPRGALSLVCKASGFTFIDYGMQWVRQAPGKGLEWVAGIGSSGSSTNYGAAVKGRATISRDDGQSTVRLQLNNLRAEDTGTYYCAKSAGGYCVNGAGCNGGSIDAWGHGTEVIVSS
notes: Chicken scFv from a phage library in pComb3X, expressed in E. coli, purified on Ni Sepharose; also called scFv CaS1; His-CaS1 scFv; not shown: His tag (and HA tag) from the pComb3X vector
In the case of B1, the binding is reported as “binds”.
